# Assay results: patent publication US20220281975A1 (Eli Lilly, published 2022)
# Results are given in words; binding and its absence hold for the method and conditions named. Some entries that bind do so weakly or less than the wild type.
# B1: TREM2 Antibody 1 (antibody, human IgG4 S228P, kappa, F234A L235A, V domains shown)
# VH: EVQLVQSGAEVKKPGESLKISCKGSGFSFNTYWIGWVRQMPGKGLEWMGIIYPGDQDIRYSPSFQGQVTISADKSISTAYLQWSSLKASDTAMYYCARYGRYIYGYGGYHGMDVWGQGTTVTVSS
# VL: DIQMTQSPSSLSASVGDRVTITCRASQAIRDDLGWYQQKPGKAPKLLIYAASSLQSGVPSRFSGSGSGTDFTLTISSLQPEDFATYYCLQNYNYPHTFGQGTKLEIKR
# notes: Human antibody with a kappa light chain
# Target: T1, Human TREM2 R47H (human, UniProt Q9NZC2 19-174, limits assumed)
# T1 construct: also called human R47H TREM mutant; R47H TREM
# T1 sequence (looked up): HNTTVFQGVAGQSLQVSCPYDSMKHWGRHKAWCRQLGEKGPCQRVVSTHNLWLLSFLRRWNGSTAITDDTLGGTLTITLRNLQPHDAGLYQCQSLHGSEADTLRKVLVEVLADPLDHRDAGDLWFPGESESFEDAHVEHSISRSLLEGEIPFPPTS
# Experiment: SPR (Biacore), 25 C
binder,measurement,value
B1,binding,binds
